Experimental data as given in ChEMBL document CHEMBL1687827, “Profiling the Aspergillus fumigatus proteome in response to caspofungin” (2011).
The source gives many values for each of these; only a part stands here.

Columns and labels:
Assay type in all cases: functional
Aspergillus fumigatus [1] = experiment: Induction of change in hypothetical protein level in iTRAQ121 labelled cell wall fraction of drug-susceptible Aspergillus fumigatus KU80 delta-akuB at 0.12 ug/ml after 48 hrs in YPD medium by MS (MS/MS) analysis relative to control
Aspergillus fumigatus [2] = experiment: Induction of change in ThiJ/PfpI family protein level in iTRAQ-116 labelled secreted fraction of drug-susceptible Aspergillus fumigatus KU80 delta-akuB at 0.12 ug/ml after 48 hrs in YPD medium by MS (MS/MS) analysis relative to control
Aspergillus fumigatus [3] = experiment: Induction of change in mycelial catalase Cat1 protein level in iTRAQ114 labelled secreted fraction of drug-susceptible Aspergillus fumigatus KU80 delta-akuB at 0.12 ug/ml after 24 hrs in YPD medium by MS (MS/MS) analysis relative to control
Aspergillus fumigatus [4] = experiment: Induction of change in ribosomal protein L16a protein level in iTRAQ114 labelled secreted fraction of drug-susceptible Aspergillus fumigatus KU80 delta-akuB at 0.12 ug/ml after 24 hrs in YPD medium by MS (MS/MS) analysis relative to control
Aspergillus fumigatus [5] = experiment: Induction of change in large subunit ribosomal protein L3 protein level in iTRAQ114 labelled secreted fraction of drug-susceptible Aspergillus fumigatus KU80 delta-akuB at 0.12 ug/ml after 24 hrs in YPD medium by MS (MS/MS) analysis relative to control
Aspergillus fumigatus [6] = experiment: Induction of change in ribosomal protein L27a protein level in iTRAQ114 labelled secreted fraction of drug-susceptible Aspergillus fumigatus KU80 delta-akuB at 0.12 ug/ml after 24 hrs in YPD medium by MS (MS/MS) analysis relative to control
Aspergillus fumigatus [7] = experiment: Induction of change in ubiquinol-cytochrome C reductase complex core protein 2, putative protein level in iTRAQ-116 labelled secreted fraction of drug-susceptible Aspergillus fumigatus KU80 delta-akuB at 0.12 ug/ml after 48 hrs in YPD medium by MS (MS/MS) analysis relative to control
Aspergillus fumigatus [8] = experiment: Induction of change in C2H2 transcription factor (Rpn4), putative gene expression in drug-susceptible Aspergillus fumigatus KU80 delta-akuB at 0.12 ug/ml after 24 hrs in YPD medium by microarray analysis relative to control
Aspergillus fumigatus [9] = experiment: Induction of change in non-classical export protein (Nce2), putative gene expression in drug-susceptible Aspergillus fumigatus KU80 delta-akuB at 0.12 ug/ml after 24 hrs in YPD medium by microarray analysis relative to control
Aspergillus fumigatus [10] = experiment: Induction of change in siderochrome-iron transporter, putative gene expression in drug-susceptible Aspergillus fumigatus KU80 delta-akuB at 0.12 ug/ml after 24 hrs in YPD medium by microarray analysis relative to control
Aspergillus fumigatus [11] = experiment: Induction of change in cytosolic ribosomal protein (Rps29a), putative gene expression in drug-susceptible Aspergillus fumigatus KU80 delta-akuB at 0.12 ug/ml after 24 hrs in YPD medium by microarray analysis relative to control
Aspergillus fumigatus [12] = experiment: Induction of change in cell wall glucanase, putative protein level in iTRAQ-116 labelled secreted fraction of drug-susceptible Aspergillus fumigatus KU80 delta-akuB at 0.12 ug/ml after 48 hrs in YPD medium by MS (MS/MS) analysis relative to control
Aspergillus fumigatus [13] = experiment: Induction of change in 40s ribosomal protein s11 protein level in iTRAQ114 labelled cell wall fraction of drug-susceptible Aspergillus fumigatus KU80 delta-akuB at 0.12 ug/ml after 24 hrs in YPD medium by MS (MS/MS) analysis relative to control
Aspergillus fumigatus [14] = experiment: Induction of change in cytosolic small ribosomal subunit S4, putative protein level in iTRAQ114 labelled cell wall fraction of drug-susceptible Aspergillus fumigatus KU80 delta-akuB at 0.12 ug/ml after 24 hrs in YPD medium by MS (MS/MS) analysis relative to control
Aspergillus fumigatus [15] = experiment: Induction of change in ribosomal protein L14 protein level in iTRAQ114 labelled cell wall fraction of drug-susceptible Aspergillus fumigatus KU80 delta-akuB at 0.12 ug/ml after 24 hrs in YPD medium by MS (MS/MS) analysis relative to control
Aspergillus fumigatus [16] = experiment: Induction of change in ribosomal protein L26 protein level in iTRAQ114 labelled cell wall fraction of drug-susceptible Aspergillus fumigatus KU80 delta-akuB at 0.12 ug/ml after 24 hrs in YPD medium by MS (MS/MS) analysis relative to control
Aspergillus fumigatus [17] = experiment: Induction of change in cytosolic small ribosomal subunit S15, putative gene expression in drug-susceptible Aspergillus fumigatus KU80 delta-akuB at 0.12 ug/ml after 24 hrs in YPD medium by microarray analysis relative to control
Aspergillus fumigatus [18] = experiment: Induction of change in Translation elongation factor eEF-3, putative protein level in iTRAQ-116 labelled cell wall fraction of drug-susceptible Aspergillus fumigatus KU80 delta-akuB at 0.12 ug/ml after 48 hrs in YPD medium by MS (MS/MS) analysis relative to control
Aspergillus fumigatus [19] = experiment: Induction of change in nuclear transport factor NTF-2, putative protein level in iTRAQ114 labelled secreted fraction of drug-resistant Aspergillus fumigatus EMFR-S678P at 0.12 ug/ml after 24 hrs in YPD medium by MS (MS/MS) analysis relative to control
Aspergillus fumigatus [20] = experiment: Induction of change in ribosomal protein L34 protein, putative protein level in iTRAQ-118 labelled cell wall fraction of drug-resistant Aspergillus fumigatus EMFR-S678P at 0.12 ug/ml after 24 hrs in YPD medium by MS (MS/MS) analysis relative to control
Aspergillus fumigatus [21] = experiment: Induction of change in 4-hydroxyphenylpyruvate dioxygenase, putative protein level in iTRAQ-116 labelled secreted fraction of drug-resistant Aspergillus fumigatus EMFR-S678P at 0.12 ug/ml after 48 hrs in YPD medium by MS (MS/MS) analysis relative to control
Aspergillus fumigatus [22] = experiment: Induction of change in Ribosomal L18ae protein family protein level in iTRAQ114 labelled cell wall fraction of drug-susceptible Aspergillus fumigatus KU80 delta-akuB at 0.12 ug/ml after 24 hrs in YPD medium by MS (MS/MS) analysis relative to control
Aspergillus fumigatus [23] = experiment: Induction of change in nuclear transport factor NTF-2, putative protein level in iTRAQ114 labelled secreted fraction of drug-susceptible Aspergillus fumigatus KU80 delta-akuB at 0.12 ug/ml after 24 hrs in YPD medium by MS (MS/MS) analysis relative to control
Aspergillus fumigatus [24] = experiment: Induction of change in IgE-binding protein level in iTRAQ114 labelled secreted fraction of drug-susceptible Aspergillus fumigatus KU80 delta-akuB at 0.12 ug/ml after 24 hrs in YPD medium by MS (MS/MS) analysis relative to control
Aspergillus fumigatus [25] = experiment: Induction of change in ThiJ/PfpI family protein level in iTRAQ-118 labelled cell wall fraction of drug-susceptible Aspergillus fumigatus KU80 delta-akuB at 0.12 ug/ml after 24 hrs in YPD medium by MS (MS/MS) analysis relative to control

## CC[C@H](C)C[C@H](C)CCCCCCCCC(=O)N[C@H]1C[C@@H](O)[C@@H](NCCN)NC(=O)[C@@H]2[C@@H](O)CCN2C(=O)[C@H]([C@H](O)CCN)NC(=O)[C@H]([C@H](O)[C@@H](O)c2ccc(O)cc2)NC(=O)[C@@H]2C[C@@H](O)CN2C(=O)[C@H]([C@@H](C)O)NC1=O [CASPOFUNGIN]
Aspergillus fumigatus [1]
  fold change (FC): >16
Aspergillus fumigatus [2]
  fold change (FC): -5.3
Aspergillus fumigatus [3]
  fold change (FC): 1.2
Aspergillus fumigatus [4]
  fold change (FC): 1.2
Aspergillus fumigatus [5]
  fold change (FC): 1.2
Aspergillus fumigatus [6]
  fold change (FC): 1.2
Aspergillus fumigatus [7]
  fold change (FC): -2.1
Aspergillus fumigatus [8]
  fold change (FC): -5
Aspergillus fumigatus [9]
  fold change (FC): -4.9
Aspergillus fumigatus [10]
  fold change (FC): -4.8
Aspergillus fumigatus [11]
  fold change (FC): 5.2
Aspergillus fumigatus [12]
  fold change (FC): -1.3
Aspergillus fumigatus [13]
  fold change (FC): 2
Aspergillus fumigatus [14]
  fold change (FC): 1.7
Aspergillus fumigatus [15]
  fold change (FC): 1.6
Aspergillus fumigatus [16]
  fold change (FC): 1.7
Aspergillus fumigatus [17]
  fold change (FC): 3.9
Aspergillus fumigatus [18]
  fold change (FC): 2.3
Aspergillus fumigatus [19]
  fold change (FC): 1.87
Aspergillus fumigatus [20]
  fold change (FC): 1.15
Aspergillus fumigatus [21]
  fold change (FC): -1.07
Aspergillus fumigatus [22]
  fold change (FC): 2.3
Aspergillus fumigatus [23]
  fold change (FC): -3.7
Aspergillus fumigatus [24]
  fold change (FC): -2.8
Aspergillus fumigatus [25]
  fold change (FC): -4.3
